Assay results reported in publication PMC2919464.
No constants are given. Whether binding was seen depends on the method and setting. Some entries that bind do so weakly or less than the wild type.

The chains behind the UniProt entries cited, without tags or fusion partners.
UniProt P11802: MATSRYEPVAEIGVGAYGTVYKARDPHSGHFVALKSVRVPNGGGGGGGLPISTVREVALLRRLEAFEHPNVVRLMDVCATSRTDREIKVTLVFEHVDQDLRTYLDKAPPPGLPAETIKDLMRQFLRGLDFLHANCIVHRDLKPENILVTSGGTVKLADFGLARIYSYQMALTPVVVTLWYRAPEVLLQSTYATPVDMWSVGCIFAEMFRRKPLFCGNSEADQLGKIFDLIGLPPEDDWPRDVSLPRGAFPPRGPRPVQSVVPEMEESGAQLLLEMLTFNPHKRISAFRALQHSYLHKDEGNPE
UniProt P24385: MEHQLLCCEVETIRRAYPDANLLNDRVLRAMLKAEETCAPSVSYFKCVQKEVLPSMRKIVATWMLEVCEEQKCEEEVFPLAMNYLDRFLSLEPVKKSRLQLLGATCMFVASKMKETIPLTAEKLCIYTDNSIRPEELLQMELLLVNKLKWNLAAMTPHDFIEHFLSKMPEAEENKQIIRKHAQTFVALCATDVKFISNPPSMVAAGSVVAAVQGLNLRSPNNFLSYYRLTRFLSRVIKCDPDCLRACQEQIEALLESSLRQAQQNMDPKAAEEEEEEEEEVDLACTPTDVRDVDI

Biological target: LexA-Cdk4 (UniProt P11802)
Assay: two-hybrid; yeast interaction mating: haploid strains with LexA DBD fusions (baits) mated with strains with B42 AD fusions (preys); diploids grown on selective media

binding: binds
Substance: AD-CyclinD1 (B42 activation domain fused to Cyclin D1) (from UniProt P24385 1-295)
